The DeepSol protein solubility set

Test: soluble on expression in E. coli; label from the status in PepcDB or PDB records

Sequence | soluble on expression in E. coli
ATTNPSQLLPLELVDKCIGSRIHIVMKSDKEIVGTLLGFDDFVNMVLEDVTEFEITPEGRRITKLDQILLNGNNITMLVPGGEGPEV | not soluble
GAMEPPYFIEPLEHVEAAIGEPITLQCKVDGTPEIRIAWYKEHTKLRSAPAYKMQFKNNVASLVINKVDHSDVGEYTCKAENSVGAVASSAVLVIKERKLPPSFARKLKDVHETLGFPVAFECRINGSEPLQVSWYKDGELLKDDANLQTSFIHNVATLQILQTDQSHVGQYNCSASNPLGTASSSAKLTLSEHEVPPFFDLKPVSVDLALGESGTFKCHVTGTAPIKITWAKDNREIRPGGNYKMTLVENTATLTVLKVTKGDAGQYTCYASNVAGKDSCSAQLGVQEPPRFIKKLEPSRIVKQDEHTRYECKIGGSPEIKVLWYKDETEIQESSKFRMSFVESVAVLEMYNLSVEDSGDYTCEAHNAAGSASSSTSLKVKEPPVFRKKPHPVETLKGADVHLECELQGTPPFQVSWHKDKRELRSGKKYKIMSENFLTSIHILNVDSADIGEYQCKASNDVGSDTCVGSITLKAPPRFVKKLSDISTVVGEEVQLQATIEGAEPISVAWFKDKGEIVRESDNIWISYSENIATLQFSRAEPANAGKYTCQIKNEAGTQECFATLSVLE | soluble
GSHMAKFVIRPATAADCSDILRLIKELAKYEYMEEQVILTEKDLLEDGFGEHPFYHCLVAEVPKEHWTPEGHSIVGFAMYYFTYDPWIGKLLYLEDFFVMSDYRGFGIGSEILKNLSQVAMRCRCSSMHFLVAEWNEPSINFYKRRGASDLSSEEGWRLFKIDKEYLLKMATEE | soluble
MAQLSLQHIQKIYDNQVHVVKDFNLEIADKEFIVFVGPSGCGKSTTLRMIAGLEEISGGDLLIDGKRMNDVPAKARNIAMVFQNYALYPHMTVYDNMAFGLKMQKIAKEVIDERVNWAAQILGLREYLKRKPGALSGGQRQRVALGRAIVREAGVFLMDEPLSNLDAKLRVQMRAEISKLHQKLNTTMIYVTHDQTEAMTMATRIVIMKDGIVQQVGAPKTVYNQPANMFVSGFIGSPAMNFIRGTIDGDKFVTETLKLTIPEEKLAVLKTQESLHKPIVMGIRPEDIHPDAQEENNISAKISVAELTGAEFMLYTTVGGTS | soluble
MDVLPMCSIFQELQIVHETGYFSALPSLEEYWQQTCLELERYLQSEPCYVSASEIKFDSQEDLWTKIILAREKKEESELKISSSPPEDTLISPSFCYNLETNSLNSDVSSESSDSSEELSPTAKFTSDPIGEVLVSSGKLSSSVTSTPPSSPELSREPSQLWGCVPGELPSPGKVRSGTSGKPGDKGNGDASPDGRRRVHRCHFNGCRKVYTKSSHLKAHQRTHTGEKPYRCSWEGCEWRFARSDELTRHFRKHTGAKPFKCSHCDRCFSRSDHLALHMKRHL | not soluble
MGHHHHHHSHERLKLGAIFLEGVTVKGVTQVTTQPKLGEVQQKCHQFCGWEGSGFPGAQPVSMDKQNIKLLDLKPYKVSWKADGTRYMMLIDGTNEVFMIDRDNSVFHVSNLEFPFRKDLRMHLSNTLLDGEMIIDRVNGQAVPRYLIYDIIKFNSQPVGDCDFNVRLQCIEREIISPRHEKMKTGLIDKTQEPFSVRNKPFFDICTSRKLLEGNFAKEVSHEMDGLIFQPTGKYKPGRCDDILKWKPPSLNSVDFRLKITRMGGEGLLPQNVGLLYVGGYERPFAQIKVTKELKQYDNKIIECKFENNSWVFMRQRTDKSFPNAYNTAMAVCNSISNPVTKEMLFEFIDRCTA | soluble
MGHHHHHHSHMYWHSCHPRPFPAESHCVTPAGVQWRDLGSLQTHCNIHLPGSSDSPASASWVAGITGTRHHTWLIFVFLVVTGFHHVGQAGLKLLTSGDPPSSSSQSAGITGVSHHAQPYSCIFFFFFFEMESESHPVAQGGV | not soluble
MGSDKIHHHHHHMGLKFSNFGKAIISSAPSGTTGLSFTIEAGKGVLFPSPGIGDYFYGIFKDASGNREIVKIEARTSDSLTIAQGGRGLDGTAPRTWAAGDYFVAGVTNIALQESLANPNLQALGGLETSADKMAYFTGPGTAALANLSSYIRSLLDDDNAATARETLGAAPASLIPPGTVMSFFQATAPTGWTQVTTHHNKALRVVGSAGGGSGGSVAFTSAFTSQAVSGWNSATTLTSAQIPAHTHSLSVYGTSGGGANPSGGGGGIITGMPITDAGTGGGGSHSHIFTGTAINLAVQYIDIIIASKD | not soluble
MKKVPITVLSGFLGSGKTTLLHHILTNKNNLKVAVIVNDMSEVNIDASLIKKGGFSRTEEKLVEIQNGCICCTLREDLMIEVNRLVENGDIDYIIIESSGISEPIPVAQTFTYTDEVLNIDLTKNCRLDTMVTVVDANRFWDDFADGESLLDRKQAIDENDTREVIDLLIDQIEFANVIILNKIDLLEKEDVIELHHLLKKLNPNAKVLESSFSKVPLQEILNTNLFNYEEASQSAGWIQELNSDYHTPETEEYGINSFVYRRKYPFHPERLMNWLEKWPLDVVRAKGFFWLASRNNMIGLLSQAGSSITIQGAGEWIAALPETERNQMIAEEPEVLKNWDERYGDRITELVFIGIDMNRSVIEQSLDDCLLTEKEMGQKWNTFIDPIPAFTYTS | not soluble
MKKYALVTGGSGGIGSAISKQLIQDGYTVYVHYNNSEEKVNELQKEWGEVIPVQANLASSDGAEQLWEQIEHPLDAIIYAAGKSIFGLVTDVTNDELNDMVELQVKSIYKLLSMALPSMIQRRSGNIVLVSSIWGQIGASCEVLYSMVKGAQNSYVKALAKEVSLSGIRVNAVAPGAIETEMLNVFSEEDKNEIAEEIPLGRLGLPEEVAKTVSFLVSPGASYITGQIIGVNGGWHC | not soluble
MNNGTVKWFNAEKGFGFIEREDGSDVFVHFSAIAEDGYKSLEEGQKVEFDIVEGDRGEQAANVVKM | not soluble
MRRTHYAGSLRETHVGEEVVLEGWVNRRRDLGGLIFLDLRDREGLVQLVAHPASPAYATAERVRPEWVVRAKGLVRLRPEPNPRLATGRVEVELSALEVLAEAKTPPFPVDAGWRGEEEKEASEELRLKYRYLDLRRRRMQENLRLRHRVIKAIWDFLDREGFVQVETPFLTKSTPEGARDFLVPYRHEPGLFYALPQSPQLFKQMLMVAGLDRYFQIARCFRDEDLRADRQPDFTQLDLEMSFVEVEDVLELNERLMAHVFREALGVELPLPFPRLSYEEAMERYGSDKPDLRFGLELKEVGPLFRQSGFRVFQEAESVKALALPKALSRKEVAELEEVAKRHKAQGLAWARVEEGGFSGGVAKFLEPVREALLQATEARPGDTLLFVAGPRKVAATALGAVRLRAADLLGLKREGFRFLWVVDFPLLEWDEEEEAWTYMHHPFTSPHPEDLPLLEKDPGRVRALAYDLVLNGVEVGGGSIRIHDPRLQARVFRLLGIGEEEQREKFGFFLEALEYGAPPHGGIAWGLDRLLALMTGSPSIREVIAFPKNKEGKDPLTGAPSPVPEEQLRELGLMVVRP | soluble
MSDSGSQLGSMGSLTMKSQLQITVISAKLKENKKNWFGPSPYVEVTVDGQSKKTEKCNNTNSPKWKQPLTVIVTPVSKLHFRVWSHQTLKSDVLLGTAALDIYETLKSNNMKLEEVVVTLQLGGDKEPTETIGDLSICLDGLQLESEVVTNGETTCSESASQNDDGSRSKDETRVSTNGSDDPEDAGAGENRRVSGNNSPSLSNGGFKPSRPPRPSRPPPPTPRRPASVNGSPSATSESDGSSTGSLPPTNTNTNTSEGATSGLIIPLTISGGSGPRPLNPVTQAPLPPGWEQRVDQHGRVYYVDHVEKRTTWDRPEPLPPGWERRVDNMGRIYYVDHFTRTTTWQRPTLESVRNYEQWQLQRSQLQGAMQQFNQRFIYGNQDLFATSQSKEFDPLGPLPPGWEKRTDSNGRVYFVNHNTRITQWEDPRSQGQLNEKPLPEGWEMRFTVDGIPYFVDHNRRTTTYIDPRTGKSALDNGPQIAYVRDFKAKVQYFRFWCQQLAMPQHIKITVTRKTLFEDSFQQIMSFSPQDLRRRLWVIFPGEEGLDYGGVAREWFFLLSHEVLNPMYCLFEYAGKDNYCLQINPASYINPDHLKYFRFIGRFIAMALFHGKFIDTGFSLPFYKRILNKPVGLKDLESIDPEFYNSLIWVKENNIEECDLEMYFSVDKEILGEIKSHDLKPNGGNILVTEENKEEYIRMVAEWRLSRGVEEQTQAFFEGFNEILPQQYLQYFDAKELEVLLCGMQEIDLNDWQRHAIYRHYARTSKQIMWFWQFVKEIDNEKRMRLLQFVTGTCRLPVGGFADLMGSNGPQKFCIEKVGKENWLPRSHTCFNRLDLPPYKSYEQLKEKLLFAIEETEGFGQE | soluble
MSGLGDSSSDPANPDSHKRKGSPCDTLASSTEKRRREQENKYLEELAELLSANISDIDSLSVKPDKCKILKKTVDQIQLMKRMEQEKSTTDDDVQKSDISSSSQGVIEKESLGPLLLEALDGFFFVVNCEGRIVFVSENVTSYLGYNQEELMNTSVYSILHVGDHAEFVKNLLPKSLVNGVPWPQEATRRNSHTFNCRMLIHPPDEPGTENQEACQRYEVMQCFTVSQPKSIQEDGEDFQSCLICIARRLPRPPAITGVESFMTKQDTTGKIISIDTSSLRAAGRTGWEDLVRKCIYAFFQPQGREPSYARQLFQEVMTRGTASSPSYRFILNDGTMLSAHTKCKLCYPQSPDMQPFIMGIHIIDREHSGLSPQDDTNSGMSIPRVNPSVNPSISPAHGVARSSTLPPSNSNMVSTRINRQQSSDLHSSSHSNSSNSQGSFGCSPGSQIVANVALNQGQASSQSSNPSLNLNNSPMEGTGISLAQFMSPRRQVTSGLATRPRMPNNSFPPNISTLSSPVGMTSSACNNNNRSYSNIPVTSLQGMNEGPNNSVGFSASSPVLRQMSSQNSPSRLNIQPAKAESKDNKEIASILNEMIQSDNSSSDGKPLDSGLLHNNDRLSDGDSKYSQTSHKLVQLLTTTAEQQLRHADIDTSCKDVLSCTGTSNSASANSSGGSCPSSHSSLTERHKILHRLLQEGSPSDITTLSVEPDKKDSASTSVSVTGQVQGNSSIKLELDASKKKESKDHQLLRYLLDKDEKDLRSTPNLSLDDVKVKVEKKEQMDPCNTNPTPMTKPTPEEIKLEAQSQFTADLDQFDQLLPTLEKAAQLPGLCETDRMDGAVTSVTIKSEILPASLQSATARPTSRLNRLPELELEAIDNQFGQPGTGDQIPWTNNTVTAINQSKSEDQCISSQLDELLCPPTTVEGRNDEKALLEQLVSFLSGKDETELAELDRALGIDKLVQGGGLDVLSERFPPQQATPPLIMEERPNLYSQPYSSPSPTANLPSPFQGMVRQKPSLGTMPVQVTPPRGAFSPGMGMQPRQTLNRPPAAPNQLRLQLQQRLQGQQQLIHQNRQAILNQFAATAPVGINMRSGMQQQITPQPPLNAQMLAQRQRELYSQQHRQRQLIQQQRAMLMRQQSFGNNLPPSSGLPVQMGNPRLPQGAPQQFPYPPNYGTNPGTPPASTSPFSQLAANPEASLANRNSMVSRGMTGNIGGQFGTGINPQMQQNVFQYPGAGMVPQGEANFAPSLSPGSSMVPMPIPPPQSSLLQQTPPASGYQSPDMKAWQQGAIGNNNVFSQAVQNQPTPAQPGVYNNMSITVSMAGGNTNVQNMNPMMAQMQMSSLQMPGMNTVCPEQINDPALRHTGLYCNQLSSTDLLKTEADGTQQVQQVQVFADVQCTVNLVGGDPYLNQPGPLGTQKPTSGPQTPQAQQKSLLQQLLTE | not soluble
MSMSSSSSICGDEDGDLLLDEEEEIDFYAILNVPKDATDDEIIKAYRKRCLMFHPDRFVDNDEKKDAERVFVKLRRAHEVLLDPKQRAIYDALGVQGLDTQGWELVSRSANPENIRKEYEFLQRLKDRELMLQRVHPTSAFMIKTTIAGMFQENDEDRYPPQLLGISLSQSVDCAFTGVDRFGLSGRVKTGNGRGDGSVSAVWKRVAGSYNLENTISLSAESVSLTCRAARNVFTRAAVIVQPQLQYNMLHEAIIPSIAMSMLNRIKKVYSEKDRLFTDSSIFCKIPFYSMRLHTRWQGSIVLNISPIANALTTTMVHTENNHAKAVGSLTLSPINSNVRLVYYIRKPENDSITEMSVQLTTYGVNPAISMDRRLSRYSRISCSFHFSFPSCLLYTKFKLKAGQSTFDWQIVLCDDKEALSRSVLYGVAIPYFSFQLAKVIFRPWWEKFKSMFEDNSREQEVDVAKKEEAANIVSLMRATAERIKRDEESKQGVIIESAKYGQCDVSGTRAYPLAGERTIDVTVPLQAMVNDSQLRVYTVKSQLPGFYDPCPGEPKMLTVRYIFRGEEHSCTVADEMPLMLPLRAHRLSSE | not soluble
